# Measurements from the supplement of paper PMC11348887.
# Counter-ions that a name gives are not always drawn. Some of the results follow. Small differences around the control level are noise.
# Columns and labels:
# Details in all cases: 5 µM; treatment: days 7-14 after plating, readout day 21
# [1] = test system: hPSC-derived cortical neurons (WA09); experiment: nucleus area z-score vs screen plate; higher = larger nuclei (more mature)
# [2] = test system: hPSC-derived cortical neurons (WA09); experiment: total neurite length per nucleus (MAP2) z-score; higher = more neurite growth
# [3] = test system: hPSC-derived cortical neurons (WA09); experiment: nucleus roundness z-score vs screen plate; higher = rounder nuclei (more mature)
# [4] = test system: hPSC-derived cortical neurons (WA09); experiment: KCl-induced FOS+/EGR-1+ double-positive nuclei fraction z-score (KCl minus unstimulated); higher = stronger activity-induced IEG response
Compound,nucleus area z-score [1],total neurite length per nucleus (z-score) [2],nucleus roundness z-score [3],KCl-induced FOS+/EGR-1+ double-positive nuclei fraction z-score [4]
COc1ccc(C2CC(c3ccccc3)=NN2c2ccc(S(N)(=O)=O)cc2)cc1 (stereo not drawn),0.372,0.0266,0.0678,1.36
O=c1c(O)c(-c2ccc(O)c(O)c2)oc2cc(O)cc(O)c12 [Quercetin],0.0123,0.34,-0.0551,1.17
CNCc1ccc(-c2[nH]c3cc(F)cc4c3c2CCNC4=O)cc1,1.56,-0.252,-0.353,0.828
CN(c1ccccc1CNc1nc(Nc2ccc3c(c2)CC(=O)N3)ncc1C(F)(F)F)S(C)(=O)=O,-1.14,-0.0854,-1.47,-1.4
Oc1ccc(Nc2nc(-c3ccc(Cl)cc3)cs2)cc1,-1.12,-0.101,0.163,-0.164
NNc1nncc2ccccc12 [Hydralazine HCl],-1.01,-0.842,-0.0192,-0.512
CC(=O)c1cc([N+](=O)[O-])c(Sc2cccc(Cl)c2Cl)s1,2.66,-0.447,-0.436,-0.408
COc1ccc(C2=N[C@H](c3ccc(Cl)cc3)[C@H](c3ccc(Cl)cc3)N2C(=O)N2CCNC(=O)C2)c(OC(C)C)c1 [Nutlin-3b],0.349,0.989,1.84,0.108
O=c1cc(N2CCOCC2)oc2c(-c3cccc4c3sc3ccccc34)cccc12,-1.07,-0.178,-0.145,-0.976
COc1ccc(-c2ccc3c(N4CCOCC4)nc(N4C[C@@H](C)O[C@@H](C)C4)nc3n2)cc1CO,1.17,0.66,0.0178,-0.274
COc1ccc(C2=N[C@@H](c3ccc(Cl)cc3)[C@@H](c3ccc(Cl)cc3)N2C(=O)N2CCNC(=O)C2)c(OC(C)C)c1 [Nutlin-3a],-1.78,0.719,0.849,-0.0521
c1ccc2c(CC3=NCCN3)cccc2c1 [Naphazoline HCl],-0.00916,0.501,0.347,0.52
CC(C)(C)C(=O)C(Oc1ccc(Cl)cc1)n1ccnc1 (stereo not drawn) [Climbazole],-0.00668,1.43,0.531,0.417
CC(C)COc1ccc(CNC(=O)N(Cc2ccc(F)cc2)C2CCN(C)CC2)cc1 [Pimavanserin],-12,-5.31,-7.8,-0.76
CC1(C)O[C@@H]2C[C@H]3[C@@H]4CCC5=CC(=O)C=C[C@]5(C)[C@H]4[C@@H](O)C[C@]3(C)[C@]2(C(=O)CO)O1 [Desonide],2.74,-1.98,-1.53,-0.666
CCOC(=O)CCC(=O)O[C@H]1[C@H](O[C@@H]2[C@@H](C)[C@H](O[C@H]3C[C@@](C)(OC)[C@@H](O)[C@H](C)O3)[C@@H](C)C(=O)O[C@H](CC)[C@@](C)(O)[C@H](O)[C@@H](C)C(=O)[C@H](C)C[C@@]2(C)O)O[C@H](C)C[C@@H]1N(C)C [Erythromycin Ethylsuccinate],0.697,-0.752,-1.11,-0.524
NC(=O)[C@@H]1CCCN1C(=O)[C@H](Cc1c[nH]cn1)NC(=O)[C@@H]1CCC(=O)N1 [Protirelin],0.938,-0.967,-0.659,-0.189
COc1ccc(-c2ccc3c(N4CCOC[C@@H]4C)nc(N4CCOC[C@@H]4C)nc3n2)cc1CO,-5.24,-1.34,-3.45,-0.998
COc1ccc(N2C(=O)/C(=C\c3ccc([N+](=O)[O-])s3)SC2=S)cc1,0.653,-0.384,0.309,-0.0978

# Some of the entries so far, bar-delimited:
Compound | nucleus area z-score [1] | total neurite length per nucleus (z-score) [2] | nucleus roundness z-score [3] | KCl-induced FOS+/EGR-1+ double-positive nuclei fraction z-score [4]
O=c1cc(N2CCOCC2)oc2c(-c3cccc4c3sc3ccccc34)cccc12 | -1.07 | -0.178 | -0.145 | -0.976
COc1ccc(-c2ccc3c(N4CCOCC4)nc(N4C[C@@H](C)O[C@@H](C)C4)nc3n2)cc1CO | 1.17 | 0.66 | 0.0178 | -0.274

# The listing continues.

Compound,nucleus area z-score [1],total neurite length per nucleus (z-score) [2],nucleus roundness z-score [3],KCl-induced FOS+/EGR-1+ double-positive nuclei fraction z-score [4]
O=C(O[C@H]1CN2CCC1CC2)N1CCc2ccccc2[C@@H]1c1ccccc1 [Solifenacin succinate],0.169,1.07,-1.62,-0.0235
CC(C)NCC(O)c1ccc(O)c(O)c1 (stereo not drawn) [Isoprenaline HCl],0.617,0.722,0.335,1.08
Cc1cc2c(cc1S(N)(=O)=O)S(=O)(=O)CCC2 [Meticrane],-0.4,-0.098,0.125,-0.495
OC[C@H]1O[C@@H](c2ccc(Cl)c(Cc3ccc(O[C@H]4CCOC4)cc3)c2)[C@H](O)[C@@H](O)[C@@H]1O,-0.247,-0.0958,0.126,0.902
Cc1ccc2c(Cl)cc(Cl)c(O)c2n1 [Chlorquinaldol],0.154,-0.0519,0.505,2.33
COc1cc2nccc(Oc3ccc(NC(=O)NC4CC4)c(Cl)c3)c2cc1C(N)=O [Lenvatinib (E7080)],0.315,0.229,0.0686,-0.145
CN1[C@@H]2CC[C@H]1C[C@@H](OC(=O)c1c[nH]c3ccccc13)C2 [Tropisetron],-0.677,0.626,0.814,2.45
O=C(NCC(=O)N1CCCC1)Nc1ccc2cnccc2c1,0.551,1.78,-0.746,0.0348
COc1ccc(C2CC(=O)c3c(O)cc(OC4OC(COC5OC(C)C(O)C(O)C5O)C(O)C(O)C4O)cc3O2)cc1OC (stereo not drawn) [Methyl-Hesperidin],0.0515,1.43,0.788,1.21
CC(C)C(=O)OCC(=O)[C@@]12O[C@H](C3CCCCC3)O[C@@H]1C[C@H]1[C@@H]3CCC4=CC(=O)C=C[C@]4(C)[C@H]3[C@@H](O)C[C@@]12C [Ciclesonide],1.04,-0.0208,0.218,0.162
Cc1onc(-c2ccccc2)c1C(=O)N[C@@H]1C(=O)N2[C@@H]1SC(C)(C)[C@@H]2C(=O)O [Oxacillin sodium monohydrate],-0.205,-0.446,-0.676,-0.126
CC12CCC(CC1=O)C2(C)C (stereo not drawn) [(+)-Camphor],0.0894,0.501,1.06,0.658
CC(C)(C)NC(=O)[C@H]1CC[C@H]2[C@@H]3CC[C@H]4NC(=O)C=C[C@]4(C)[C@H]3CC[C@]12C [Finasteride],0.084,-0.0128,-0.0367,-0.255
COc1cc(OC)c(/C=C/S(=O)(=O)Cc2ccc(OC)c(NCC(=O)O)c2)c(OC)c1,-10.4,-3.64,-2.67,0.603
CS(=O)(=O)c1ccc(-c2cnc(N)c(C(=O)Nc3ccccc3)n2)cc1,1.46,1.04,0.536,1.4
COc1ccc(CN(CCN(C)C)c2ccccn2)cc1 [Pyrilamine Maleate],2.51,0.925,-0.0156,0.927
N=C(NCCCCCCNC(=N)NC(=N)Nc1ccc(Cl)cc1)NC(=N)Nc1ccc(Cl)cc1 [Chlorhexidine HCl],-10.6,-4.39,-2.48,-0.967
O=C(NC1CCN(CCCCC2(C(=O)NCC(F)(F)F)c3ccccc3-c3ccccc32)CC1)c1ccccc1-c1ccc(C(F)(F)F)cc1 [Lomitapide Mesylate],-12.1,-4.31,-4.72,-0.336
Oc1ncnc2[nH]ncc12 [Allopurinol],-0.0381,0.264,-0.154,1.04

Compound,nucleus area z-score [1],total neurite length per nucleus (z-score) [2],nucleus roundness z-score [3],KCl-induced FOS+/EGR-1+ double-positive nuclei fraction z-score [4]
COc1cc(Cc2cnc(N)nc2N)cc(OC)c1OC [Trimethoprim],0.081,0.115,0.29,-0.124
O=C(O)c1ccc(Nc2ncc3c(n2)-c2ccc(Cl)cc2C(c2c(F)cccc2F)=NC3)cc1,0.761,1.44,1.19,1.38
NC(=O)c1ncn([C@@H]2O[C@H](CO)[C@@H](O)[C@H]2O)n1 [Ribavirin],-0.681,-0.15,-0.255,0.653
Oc1c(F)cc(-c2cnccc2-c2ccc(N3CCOCC3)cc2)cc1F,1.69,0.00576,-0.264,-0.0129
CC(C=CC(=O)NO)=CC(C)C(=O)c1ccc(N(C)C)cc1 (stereo not drawn) [Trichostatin A (TSA)],-7.25,-2.57,-2.47,-0.0416
Cc1ccc(S(=O)(=O)Cc2nc(-c3ccc(C(=O)NCc4cccnc4)cc3)oc2C)cc1,-13.8,-4.26,-1.42,-0.518
CNC(=O)c1cc(COc2nnc(Nc3ccc(Cl)cc3)c3ccoc23)ccn1 [Telatinib],-0.253,-0.832,-1.49,-0.0056
COC(=O)N[C@H](C(=O)N1CC2(CC2)C[C@H]1c1nc(-c2ccc3c(c2)C(F)(F)c2cc(-c4ccc5[nH]c([C@@H]6[C@H]7CC[C@H](C7)N6C(=O)[C@@H](NC(=O)OC)C(C)C)nc5c4)ccc2-3)c[nH]1)C(C)C [Ledipasvir (GS5885)],-1.2,-1.17,-0.927,-1.11
CCOC(=O)[C@H]1O[C@@H]1C(=O)N[C@@H](CC(C)C)C(=O)NCCC(C)C [Aloxistatin],-0.458,0.56,1.01,-0.203
Cc1ccc(-c2c(-c3nn(C)c4ncnc(N5CC[C@H](N6CCCCC6)C5)c34)cnn2C)cc1,-0.195,-0.416,0.00281,-0.35
CCCCCCCCCCCCc1ccc(S(=O)(=O)Nc2nncs2)cc1,-0.138,1.31,0.165,-0.635
N[C@@H]1CN(c2c(F)cc3c(=O)c(C(=O)O)cn([C@@H]4C[C@@H]4F)c3c2Cl)CC12CC2 [Sitafloxacin Hydrate],0.22,-0.0301,-0.0366,-0.264
Cc1ccc(S(=O)(=O)NC(=O)NN2CCCCCC2)cc1 [Tolazamide],2.35,-0.5,0.129,-0.129
O=C(NC(Cc1cc(=O)[nH]c2ccccc12)C(=O)O)c1ccc(Cl)cc1 (stereo not drawn) [Rebamipide],0.503,-0.826,-0.36,0.196
CCc1oc2ccccc2c1C(=O)c1cc(Br)c(O)c(Br)c1 [Benzbromarone],0.287,0.25,-0.0329,2.08
COc1cc2nc(N3CCCN(C)CC3)nc(NC3CCN(Cc4ccccc4)CC3)c2cc1OC,-14.3,-4.54,0.7,-0.35
O=C1N=C(O)NC1(c1ccccc1)c1ccccc1 [Phenytoin sodium],0.475,-0.0247,0.604,1.1
CNC(=O)c1cc(Oc2ccc3nc(N[C@@H]4CCCC[C@H]4O)sc3c2)ccn1,0.166,0.408,0.0257,1.89
COc1cccc2c1C(=O)c1c(O)c3c(c(O)c1C2=O)C[C@@](O)(C(=O)CO)C[C@@H]3O[C@H]1C[C@H](N)[C@H](O)[C@H](C)O1 [Doxorubicin (Adriamycin)],-3.44,-2.75,1.15,-0.215
